Each number is a percent effect as filed.
How 0% and 100% were set is not recorded. Most values in the screen are low, and negative values occur.
This is an unselected part of the compounds tested.
Two or more numbers in one place are separate tests of the same structure; such repeats can differ widely.

A: 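Whole-cell growth test on Mycobacterium tuberculosis, read after 4 days in a medium based on cholesterol and the lipid DPPC; the read-out is not stated. Concentration: 50 µM. Direction is inferred from retests: higher values go with more growth inhibition. About 69,000 compounds were tested under these conditions; 0.54% (about 370) showed 50% or more at least once.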
B: 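Whole-cell growth test on Mycobacterium tuberculosis, read after 3 days in glucose-containing 7H9 medium; the read-out is not stated. Concentration: 50 µM. Higher reads as more growth inhibition (inferred: compounds with an IC50 in retests scored well above the rest). About 69,000 compounds were tested under these conditions; 1.1% (about 760) showed 50% or more at least once.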

O=C(CCC1CCCC1)N1CCC(c2ncc3c(n2)CCNC3)CC1 read A: 0.4523%; B: 41.09%. FC(F)Oc1ccccc1CNCc1cc(Br)c2c(c1)OCO2 read A: 26.44%; B: 27%. C=C(C)Cn1c(=O)nc(N)c2c(-c3ccc(OC)cc3)csc21 read A: 7.291%; B: 2.533%. With CC(CC#N)NC(=O)c1cc(Br)c2c(c1)OCCO2 (stereo not drawn) the screen gave A: -11.49%; B: 8.808%. Cc1nc(N2CCCC2)nc2c1CCN(C(=O)C1CCCC1)CC2 gave A: 6.823%; B: 9.152%. For COCc1cc(NCCc2ccc(OC)cc2)n2nccc2n1 the result was A: 33.54%; B: 44.1%.

CCn1cnnc1CNC(=O)N1CCN(c2ccc(OC)cc2)CC1 read A: -24.59%; B: 3.605%. O=c1oc(-c2ccc(F)cc2)nn1CCc1ccccn1 read A: 12.79% and -7.607%; B: -47.45%. For [H][C@]12CC[C@]([H])(CN(S(=O)(=O)c3ccc(C#N)cc3)C1)N(CCOC)C2=O the result was A: -10.82%; B: -22.64%. For O=C(Cc1cccc(F)c1F)NS(=O)(=O)c1cncc(Cl)c1 the result was A: 2.317%; B: -8.998% and -5.179%. [H][C@]12CC[C@]([H])(CN(Cc3nccs3)C1)N(Cc1c(C)noc1C)C2=O read A: -23.87%; B: 0.8077%. Result for O=C(NCc1ccccc1CN1CCCC1=O)Nc1nncs1 was A: -47.55%; B: -3.778%.

For CC(=O)N(Cc1c(F)cccc1F)C1CCCC1 the result was A: 0.4165%; B: 15.25%. For Cc1noc(C)c1S(=O)(=O)N(CC(N)=O)CC(C)C the result was A: 19.84%; B: -3.867% and 15.91%. CN(Cc1ccsc1)C(=O)C1CCC(=O)N(Cc2ccccn2)C1 (stereo not drawn) gave A: 4.212%; B: 16.52% and -7.31%. [H][C@@]12CCN(C(=O)c3cc(C(C)=O)c(C)[nH]c3=O)C[C@@]([H])(CC1)N2C gave A: -3.555%; B: -14.2%. Clc1ccccc1-c1nnc(CSCCN2CCOCC2)o1 read A: 0.842%; B: 1.597% and 3.748%. Nc1cccnc1N1CCN(c2ccccc2)CC1 gave A: -13.46%; B: 8.935% and -10.89%.

Result for Cc1nn(-c2ccccn2)c(C)c1[C@@H]1C=C[C@@H](NC(=O)NC(C)C)C1 was A: 8.556%; B: 14.36% and -0.3067%. With Cn1nc2c(cc1=O)CN(Cc1nc(-c3cccnc3)no1)CC2 the screen gave A: 7.903%; B: -3.632%. CCc1nc(C)c([C@H]2CN(C)C[C@@H]2C(=O)Nc2ccc3[nH]ncc3c2)[nH]1 gave A: -3.049%; B: 23.91%. Result for O=C(O)C(F)(F)F.O=C(c1ccnnc1)N1CC[C@]2(C[C@H](Oc3ncccc3F)CO2)C1 was A: 23.49%; B: 1.952%. CN(C)S(=O)(=O)c1ccc(CN2CCCC2c2ccsc2)o1 (stereo not drawn) read A: -5.712%; B: -13.76%. With COCCCN(C)C(=O)Cn1cccc(OC)c1=O the screen gave A: -4.166%; B: -5.204%.

For [H][C@@]12CCN(C(=O)c3ccc(C)o3)[C@]1([H])CCC(=O)N2CC1CC1 the result was A: 8.729%; B: 23.22% and -8.996%. Cc1ccc(OCC(=O)NCc2sccc2C)nc1 read A: 28.61% and -2.929%; B: -0.8978%. For [H][C@@]12C[C@@H](OC)C[C@]1([H])CN(C(=O)c1n[nH]c3c1CCCC3)C2 the result was A: -28.68%; B: -17.73%. With [H][C@@]12CN(Cc3cccs3)C[C@H](C(=O)Nc3cccnc3)[C@]1([H])CCO2 the screen gave A: -27.08%; B: -5.518%. O=c1c(NCCNCCO)c(N2CCN(Cc3ccccc3)CC2)c1=O read A: -2.304%; B: 13.9%.

2 of the entries, repeated:

[H][C@@]12CCN(C(=O)c3cc(C(C)=O)c(C)[nH]c3=O)C[C@@]([H])(CC1)N2C read A: -3.555%; B: -14.2%.
O=C(NCc1ccccc1CN1CCCC1=O)Nc1nncs1 read A: -47.55%; B: -3.778%.

From ChEMBL document CHEMBL3988442, “University of Dundee, Small-Polar-MMV Screening Library” (2021).